# Test results reported in PMC10739977.
# These are yes or no findings as the source states them, for the method shown. In cells and extracts the contact can be indirect. Some binding calls cover weakened binding; strength is not graded here. Sequences can lack the tags named with a protein.
# T1: Fc-Angptl4 (human) (UniProt Q9BY76)
# T1 sequence: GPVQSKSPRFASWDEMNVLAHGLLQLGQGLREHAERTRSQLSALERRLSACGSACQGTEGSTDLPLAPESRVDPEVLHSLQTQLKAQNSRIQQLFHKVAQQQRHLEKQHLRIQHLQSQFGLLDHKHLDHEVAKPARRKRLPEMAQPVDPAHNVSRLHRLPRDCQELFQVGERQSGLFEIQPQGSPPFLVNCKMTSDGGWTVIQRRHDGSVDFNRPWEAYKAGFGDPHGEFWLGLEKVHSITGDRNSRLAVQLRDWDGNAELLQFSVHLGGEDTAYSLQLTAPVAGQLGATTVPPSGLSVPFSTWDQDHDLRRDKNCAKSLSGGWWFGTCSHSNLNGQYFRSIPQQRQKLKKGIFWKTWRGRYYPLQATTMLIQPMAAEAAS
# T2: Fc-Angptl8 (human) (UniProt Q6UXH0)
# T2 sequence: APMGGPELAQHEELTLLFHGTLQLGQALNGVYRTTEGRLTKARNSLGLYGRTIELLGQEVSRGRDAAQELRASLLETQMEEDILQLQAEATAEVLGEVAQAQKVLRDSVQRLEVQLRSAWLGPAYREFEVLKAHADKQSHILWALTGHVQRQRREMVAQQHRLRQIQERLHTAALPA
# T3: Fc-tagged human Angptl3 (human) (UniProt Q9Y5C1)
# T3 sequence: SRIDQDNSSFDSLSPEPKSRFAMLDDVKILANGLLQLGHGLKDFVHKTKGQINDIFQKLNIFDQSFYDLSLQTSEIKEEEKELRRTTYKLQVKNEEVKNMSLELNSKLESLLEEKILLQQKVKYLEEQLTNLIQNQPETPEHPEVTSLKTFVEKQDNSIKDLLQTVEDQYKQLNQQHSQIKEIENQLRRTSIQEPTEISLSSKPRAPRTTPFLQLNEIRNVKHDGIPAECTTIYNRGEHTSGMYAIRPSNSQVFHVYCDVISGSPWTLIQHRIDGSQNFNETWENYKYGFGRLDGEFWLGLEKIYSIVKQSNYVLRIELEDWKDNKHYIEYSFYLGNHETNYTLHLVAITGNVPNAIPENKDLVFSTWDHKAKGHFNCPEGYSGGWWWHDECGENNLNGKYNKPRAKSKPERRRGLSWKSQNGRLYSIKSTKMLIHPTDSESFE
# Columns and labels:
# Test in all cases: pull-down; protein-A affinity pull-down from extracts of Fc, Fc-Angptl3, Fc-Angptl4 and Fc-Angptl8 McA cells, 4 °C for ~12 h; lysis buffer 150 mM NaCl, 50 mM Tris pH 7.5, 1% IGEPAL CA-630; Western with anti-SmarcAL1 and anti-Fc
# [1] = molecular target: T1, Fc-Angptl4 (human)
# [2] = molecular target: T2, Fc-Angptl8 (human)
# [3] = molecular target: T3, Fc-tagged human Angptl3 (human)
binder,measurement,setting,value
"SmarcAL1 (SWI/SNF-related matrix-associated actin-dependent regulator of chromatin subfamily A-like protein 1) (protein, UniProt B4F769 1-910) MSLPLTEEQRKKIEENRQKALARRAEKLWAEQPQSTASGSSAARPSQCKQNSLLNLPAEPSKPEGHATISKGQNLNNSLPAAQRPHSSPCFQPSTAEEAKGLWKSEGKMSAACPNPSPPEVSNQQLLGSKSSEGHPQATQDTAASCPRPFPRDPKLEAKAGRPSTSGQSISDTFYALGEKTPKTDGRPAKALQTSPQKASCLRGMCLRTGDRFRVKIGYNKELIEVFKSLPSRRYDSFTKTWDFSMSDYRALMKAVERLSTVSLQPLEEVDGTGGQTSLPSAPSLTFVTGRCMLISRARFEVDIGYSEVVIALFKQMESRNYDPKTRKWNFLLEEHNKLIARSRELKQVQLDPLPKTLTLAFASQLEKTSLQSKADVPEADLSGVDAKLVSNLMPFQREGVSFAISKRGRLLLADDMGLGKTIQAICIAAFYRKEWPLLVVVPSSVRFTWEQAFLRWLPSLSPEDINVVVTGKGRLTAGLVNIVSFDLLSKLEKQLKTPFKVVIIDESHFLKNIKTARCRAAVPILKVAKRVILLSGTPAMSRPAELYTQIIAVKPTFFPQFHAFGLRYCDAKRLPWGWDYSGSSNLGELKLLLEEAVMLRRLKSDVLSQLPAKQRKMVVVNPGRISTRAKAALDAAAKEMTKDKTKQQQKEALLVFFNRTAEAKIPCVIEYILDLLESGREKFLVFAHHKVLLDAIAKELERKNVQHIRIDGSTPSADREDLCQQFQLSKGHTVAVLSITAANMGLTFSSADLVVFAELFWNPGVLIQAEDRVHRIGQTNSVGIHYLVAKGTADDYLWPLIQEKIKVLGEAGLSETNFSEMTEATDYLYKDPKQKTIYSLFQQSFEDDGNDMEFLEAAESFELGSTSGTSGNSSQELGDITDENALADSPPKKRRFEFFDNWDSFTSPF",binding,[1],no binding
same,binding,[2],no binding
same,binding,[3],binds
